Experimental data reported in patent US20150164916A1, “ROFLUMILAST COMPOSITIONS FOR THE TREATMENT OF COPD” (Forest Laboratories Holdings Ltd., priority 2012, published 2015).
At least one compound was matched to its structure with a doubt left.

Tests used:
Format in all cases: cell-based, human
MKP1 = assay: Real time RT-PCR of MKP1 mRNA in CSE-stimulated neutrophils from COPD patients; settings: RNO 1 nM and 1 μM, DEX 1 μM, RNO 1 nM plus DEX 1 μM, NAC 1 mM for 1 h, then CSE 5% 6 h
Experimental: (§1) Neutrophils and monocytes were isolated from peripheral venous blood by standard laboratory procedures. In brief, peripheral venous blood was mixed with dextran 500 at 3% (in 0.9% saline) in a proportion of 2:1. This mixture was incubated at room temperature for 30 min until erythrocytes were sedimented. The upper phase was carefully collected and added on Ficoll-Paque Histopaque 1077 (Amershan Pharmacia Biotech, Barcelona, Spain) density gradient in a proportion of 3:1. The two phases generated were centrifuged at 150 g, 4° C. for 30 min. […]
(§2) CSE was prepared as previously outlined (Milara et al.; Ortiz et al.). […] The quality of the prepared CSE solution was assessed based on the absorbance at 320 nm, which is the specific absorption wavelength of peroxynitrite. Stock solutions with an absorbance value of 3.0±0.1 were used. […]
(§3) Total RNA was obtained from isolated neutrophils under basal conditions or after different drug and stimulation periods defined above by using TriPure® Isolation Reagent (Roche, Indianapolis, USA). […] Relative quantification of these transcripts was determined with the 2^−ΔΔCt method using glyceraldehyde phosphate dehydrogenase (GAPDH) as endogenous control (Applied Biosystems; 4352339E) and normalized to control group as previously described (Milara et al., 2009).
(§4) Then, mRNA was isolated and quantified for different genes.

MIF = assay: Real time RT-PCR of MIF mRNA in CSE-stimulated neutrophils from COPD patients; settings: RNO 1 nM and 1 μM, DEX 1 μM, RNO 1 nM plus DEX 1 μM, NAC 1 mM for 1 h, then CSE 5% 6 h
Experimental: as §1, §2, §3, §4

p-ERK1/2 = assay: Western blot of ERK1/2 phosphorylation in CSE-stimulated neutrophils from COPD patients; settings: RNO 1 nM and 1 μM, DEX 1 μM, RNO 1 nM plus DEX 1 μM, NAC 1 mM for 1 h, then CSE 5% 20 min
Experimental: as §1, §2
Western blot analysis was used to detect changes in p-ERK1/2 (42-44 kD). […] Cells were then centrifuged and the total protein was extracted using a lysis buffer consisting of a complete inhibitor cocktail plus 1 mM ethylenediaminetetraacectic acid (Roche Diagnostics Ltd, West Sussex, UK) with 20 mM Tris base, 0.9% NaCl, 0.1% Triton X-100, 1 mM dithiothreitol and 1 μg mL^−1 pepstatin A. The Bio-Rad assay (Bio-Rad Laboratories Ltd., Herts, UK) was used (following manufacturer's instructions) to quantify the level of protein in each sample to ensure equal protein loading. […]

PI3Kδ = assay: Real time RT-PCR of PI3Kδ expression in CSE-stimulated neutrophils from COPD patients; settings: RNO 1 nM and 1 μM, DEX 1 μM, RNO 1 nM plus DEX 1 μM, NAC 1 mM, CSE 5%
Experimental: as §1, §2, §3, §4

GCβ = assay: Real time RT-PCR of GCβ mRNA in CSE-stimulated neutrophils from COPD patients; settings: RNO 1 nM and 1 μM, DEX 1 μM, RNO 1 nM plus DEX 1 μM, NAC 1 mM, CSE 5%
Experimental: as §1, §2, §3, §4

HDAC2 = assay: Real time RT-PCR of HDAC2 expression in CSE-stimulated neutrophils from COPD patients; settings: RNO 1 nM and 1 μM, DEX 1 μM, RNO 1 nM plus DEX 1 μM, NAC 1 mM, CSE 5%
Experimental: as §1, §2, §3, §4

IL-8 release = assay: LPS- or CSE-induced IL-8 release in isolated peripheral blood neutrophils (ELISA); settings: COPD neutrophils stimulated with LPS or CSE; LY-294002 10 μM, NAC 1 mM
Experimental: as §1, §2
(§5) IL-8 was determined by using commercially available enzyme-linked immunosorbent assay kit for IL-8 (R&D Systems, UK) according to the manufacturer's protocol. MMP-9, IL-1β, GM-CSF and CCL-5 were measured by LUMINEX technology according to the manufacturer's protocol.
(§6) Data were presented as mean±SEM. IC50 values were calculated for each drug and their combinations. […]

MMP-9 release = assay: LPS- or CSE-induced MMP-9 release in isolated peripheral blood neutrophils (LUMINEX); settings: COPD neutrophils stimulated with LPS or CSE; LY-294002 10 μM, NAC 1 mM
Experimental: as §1, §2, §5, §6

SMILES	effect on CSE-induced down-regulation of MKP1 mRNA expression (MKP1)	effect on CSE-induced increase of MIF mRNA expression (MIF)	effect on CSE-induced phosphorylation of ERK1/2 (p-ERK1/2)	effect on CSE-induced PI3Kδ upregulation (PI3Kδ)	effect on CSE-induced GCβ upregulation (GCβ)	effect on CSE-induced HDAC2 downregulation (HDAC2)	rescue of DEX anti-inflammatory effect on IL-8 release (IL-8 release)	rescue of DEX anti-inflammatory effect on MMP-9 release (MMP-9 release)
C[C@@H]1C[C@H]2[C@@H]3CCC4=CC(=O)C=C[C@]4(C)[C@@]3(F)[C@@H](O)C[C@]2(C)[C@@]1(O)C(=O)CO [DEX, dexamethasone]	did not rescue MKP1 to control expression	did not rescue	not by DEX	not DEX (1 μM) inhibited	not DEX (1 μM) inhibited	not DEX (1 μM) inhibited	–	–
O=c1cc(N2CCOCC2)oc2c(-c3ccccc3)cccc12 [LY-294002]	–	–	–	–	–	–	able to rescue DEX anti-inflammatory effect	able to rescue DEX anti-inflammatory effect
